Values from PubChem BioAssay AID1508597 (Cure First, 2020)
This is a random part of the about 2,100 reagents, under one of the conditions tested. 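Calls flag viability under 80% in either arm, not effects specific to rucaparib; the reference for percent is not stated.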 A number with no mark means an inactive call. Some reagents were tested in more than one well and are listed for each. The record does not give: the 100% reference.

Aim: 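Survival screen with siRNA in ovarian cancer cells derived from patients, with or without rucaparib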 (primary screen)
Cells: human ovarian carcinoma lines grown from tumours: OCI-P5x (papillary serous) and OCI-C5x (clear cell)
Reagents: siRNA pool against human genes, 1.25 pmol siRNA per well
Time to read-out: 72 h or 96 h, depending on the cell culture
Treatment: rucaparib 20 µM (about IC30) or vehicle, present until read-out
Rucaparib or vehicle: Vehicle
Cell line: OCI-C5x (clear cell)
Measured: 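Luminescent ATP-based viability assay read 72 or 96 h after transfection, depending on culture, given as normalised percent viability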
Scale: viability, normalised: higher = more viable cells remaining
Call rule: 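Active when normalised viability falls below 80 percent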
Calls: active = viability under 80%; inactive = viability 80% or more

gene	PubChem SID	technical replicate	viability, normalised (%)
PIP4K2A	SID405527389	1	60.6 (active)
PIP4K2A	SID405527389	2	74.3 (active)
PIP4K2A	SID405527389	3	81.7
DDX51	SID405528196	1	32.1 (active)
DDX51	SID405528196	2	40.3 (active)
DDX51	SID405528196	3	38.3 (active)
KDM4D	SID405526936	1	36.9 (active)
KDM4D	SID405526936	2	32.5 (active)
KDM4D	SID405526936	3	31.2 (active)
FGFR3	SID405527869	1	74.8 (active)
FGFR3	SID405527869	2	56.9 (active)
FGFR3	SID405527869	3	45.8 (active)
EED	SID405526742	1	52.1 (active)
EED	SID405526742	2	37.9 (active)
EED	SID405526742	3	57.5 (active)
AK4	SID405528601	1	57.1 (active)
AK4	SID405528601	2	63.1 (active)
AK4	SID405528601	3	70.8 (active)
PLCG2	SID405526714	1	51.3 (active)
PLCG2	SID405526714	2	57.7 (active)
PLCG2	SID405526714	3	58.8 (active)
FRK	SID405527613	1	71 (active)
FRK	SID405527613	2	58.2 (active)
FRK	SID405527613	3	73.6 (active)
SMYD2	SID405527347	1	36.1 (active)
SMYD2	SID405527347	2	36 (active)
SMYD2	SID405527347	3	30.2 (active)
RPS6KA3	SID405527497	1	117
RPS6KA3	SID405527497	2	100
RPS6KA3	SID405527497	3	88.1
CDCA8	SID405528083	1	42.4 (active)
CDCA8	SID405528083	2	28.2 (active)
CDCA8	SID405528083	3	38.6 (active)
RNF20	SID405527254	1	59.1 (active)
RNF20	SID405527254	2	48.8 (active)
RNF20	SID405527254	3	58.8 (active)
TLK1	SID405526564	1	72.3 (active)
TLK1	SID405526564	1	58.6 (active)
TLK1	SID405526564	2	58.5 (active)
TLK1	SID405526564	2	73 (active)
TLK1	SID405526564	3	58.1 (active)
TLK1	SID405526564	3	56.7 (active)

Sorted by “viability, normalised (%)” (lowest first): some entries from above
gene	PubChem SID	technical replicate	viability, normalised (%)
CDCA8	SID405528083	2	28.2 (active)
SMYD2	SID405527347	3	30.2 (active)
SMYD2	SID405527347	2	36 (active)
CDCA8	SID405528083	1	42.4 (active)
RPS6KA3	SID405527497	3	88.1
RPS6KA3	SID405527497	2	100
RPS6KA3	SID405527497	1	117
